Data taken from PubChem BioAssay AID588590 (National Center for Advancing Translational Sciences (NCATS), 2011).
Where “and” joins values, the source holds several entries; their conditions need not be identical. Equal values may be shown once. Hit rate of the full screen: of about 390,000 compounds, about 4,000 (1%) were called active. The shares of active, inactive and inconclusive entries below differ from those in the screen. The call rests on the fitted dose curve; in most records, active means well fitted inhibition curve with a large enough effect; inconclusive means small, poorly fitted or top-dose-only effect, or another doubt; inactive means no such curve, though single readings can be large or run the other way. Where the call is inconclusive, the potency comes from a doubtful curve fit.

By UniProt entry, the sequences of proteins in these tests, tags left out. Where a name states a change or a piece, a line headed by the entry shows the natural chain unless it says otherwise.
UniProt Q9UNA4: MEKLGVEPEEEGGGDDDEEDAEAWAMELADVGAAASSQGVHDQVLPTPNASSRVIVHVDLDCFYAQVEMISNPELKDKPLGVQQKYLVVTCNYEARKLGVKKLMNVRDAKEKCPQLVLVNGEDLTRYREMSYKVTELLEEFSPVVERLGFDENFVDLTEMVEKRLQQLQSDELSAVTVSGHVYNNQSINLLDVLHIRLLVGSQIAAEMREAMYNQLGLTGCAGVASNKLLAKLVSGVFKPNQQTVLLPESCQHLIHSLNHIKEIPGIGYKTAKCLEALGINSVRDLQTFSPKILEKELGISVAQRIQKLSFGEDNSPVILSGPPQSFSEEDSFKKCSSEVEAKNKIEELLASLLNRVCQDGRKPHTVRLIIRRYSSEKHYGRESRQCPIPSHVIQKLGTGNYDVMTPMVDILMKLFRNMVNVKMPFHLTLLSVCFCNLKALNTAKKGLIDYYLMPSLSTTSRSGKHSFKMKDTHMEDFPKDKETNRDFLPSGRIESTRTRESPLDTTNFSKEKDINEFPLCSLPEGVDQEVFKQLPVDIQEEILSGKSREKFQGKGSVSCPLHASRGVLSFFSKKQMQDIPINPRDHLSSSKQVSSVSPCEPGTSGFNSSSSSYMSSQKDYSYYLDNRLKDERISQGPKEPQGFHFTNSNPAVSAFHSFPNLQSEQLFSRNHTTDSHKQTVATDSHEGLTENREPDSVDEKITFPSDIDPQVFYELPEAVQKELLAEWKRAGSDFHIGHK

Target: DNA polymerase iota (Homo sapiens) (UniProt Q9UNA4)
Assay: qHTS for Inhibitors of Polymerase Iota
Conditions: Pol iota fluorescent replication assay, 10 min; series mostly up to 115 µM
Outline: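 Pol iota at 10 nM preincubated 15 min with compounds at room temperature; reaction started with fluorescent substrate, 50 nM final. Fluorescence read kinetically at 0 and 10 min; buffer-only wells as negative control.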
Potency means the concentration at half of the fitted maximal effect.

Structure (SMILES) | Potency
CCn1c(CN2CCC(C)CC2)nc2cc(NC(=O)COc3ccc([N+](=O)[O-])cc3)ccc21 | inactive
Cc1cccc(/C=N/NC(=O)c2ccccc2OCc2cccc(Br)c2)n1 | inactive
COc1ccc(C2=Nc3ccc(Br)cc3C(c3ccccc3)N2CC(=O)NN)cc1 (stereo not given) | inconclusive: 63.1 µM [inhibitor, partial curve, poor fit]
O=C(COc1cccc2cccnc12)N/N=C1\SCC(=O)N1Cc1ccco1 | inconclusive: 1.58 µM [inhibitor, partial curve, poor fit]
CCNc1nc(NCC)n2c(SCC(=O)Nc3ccc(C)c(C)c3)nnc2n1 | inconclusive: 56.2 µM [inhibitor, partial curve, poor fit]
O=C1Nc2ccc(F)cc2C12Nc1ccccc1-c1nnc(SCc3ccccc3F)nc1O2 (stereo not given) | inconclusive: 11.2 µM [inhibitor, partial curve, poor fit]
COc1ccc(-n2c(SCC(N)=O)nnc2-c2ccc(NS(=O)(=O)c3ccc(C)cc3)cc2)cc1 | inconclusive: 11.2 µM [inhibitor, full curve, poor fit]
CCN(c1ccccc1)S(=O)(=O)c1ccc(C(=O)NCCCN2CCOCC2)cc1 | inactive
Cc1ccc(NC(=O)CC2Nc3cccc4cccc(c34)NC2=O)cc1 (stereo not given) | active: 5.01 µM
CCOc1cccc2cc(-c3nc4sc5c(c4c(=O)[nH]3)CCC(C)C5)c(=O)oc12 (stereo not given) | inactive
COc1cccc(/C=N/N2C(=O)CSC2=S)c1O | inconclusive: 15.8 µM [inhibitor, full curve, poor fit]
Cc1cccc(C2NC(=O)c3c(sc(C)c3C)N2)c1O (stereo not given) | inconclusive: 35.5 µM [inhibitor, partial curve, poor fit]
COc1ccc(C(=O)COC(=O)c2ccccc2C(=O)N(C)c2ccccc2)c(OC)c1 | inconclusive: 20 µM [inhibitor, full curve]
CCc1ccc(S(=O)(=O)c2nnn3c2nc(NC2CCCC2)c2sccc23)cc1 | inactive
CCOC(=O)CSC1=NC(=O)/C(=C/c2ccc(Br)cc2)S1 | inactive
COC(=O)c1ccc(Cn2nc(C(F)(F)F)cc2C)cc1 | inconclusive: 39.8 µM [inhibitor, single point]
CCCCCCCCCCC(C)(C)C(=O)Nc1c(OC)cc(OC)cc1OC | inconclusive: 39.8 µM [inhibitor, single point]
COc1ccc(NC(=O)CN(C)S(=O)(=O)c2ccc3[nH]c4c(c3c2)CCCC4)cc1Cl | inactive
O=C(CN1CCN(c2ccc(O)cc2)CC1)N1CCc2ccccc21 | inconclusive: 31.6 µM [inhibitor, single point]
COc1ccc2ccccc2c1C1CC(=O)N2CN(C)CSC2=C1C#N (stereo not given) | inactive

Reprinted from the entries so far for reference:
Structure (SMILES) | Potency
O=C(COc1cccc2cccnc12)N/N=C1\SCC(=O)N1Cc1ccco1 | inconclusive: 1.58 µM [inhibitor, partial curve, poor fit]
CCNc1nc(NCC)n2c(SCC(=O)Nc3ccc(C)c(C)c3)nnc2n1 | inconclusive: 56.2 µM [inhibitor, partial curve, poor fit]

(more compounds)

Structure (SMILES) | Potency
O=C(CCN1CCc2ccccc2C(c2ccccc2)C1)c1ccc2c(c1)OCCO2 (stereo not given) | inconclusive: 2.82 µM [inhibitor, full curve, poor fit]
O=C(CSc1nnc(CNC(=O)c2c(F)cccc2F)o1)NCc1ccco1 | inconclusive: 89.1 µM [inhibitor, single point]
O=C(NCCc1ccccc1)c1c[nH]c2ccc(S(=O)(=O)Nc3ccccc3F)cc2c1=O | inconclusive: 89.1 µM [inhibitor, single point]
CC(C)C[C@@H](CN)NC(=O)c1nc[nH]c1C(=O)N[C@@H](C)C(=O)CNC[C@H](CC(C)C)NC(=O)c1nc[nH]c1C(=O)N[C@@H](CC(=O)O)C(=O)O | inconclusive: 20 µM [inhibitor, full curve, poor fit]
Cc1ccc(S(=O)(=O)N2CCCCC2)cc1C(=O)N1CCN(CCO)CC1 | inconclusive: 50.1 µM [inhibitor, partial curve, poor fit]
CCC(C)(C)NC(=O)CN(C(=O)c1snc(C(N)=O)c1N)c1ccc2c(c1)OCO2 | inconclusive: 79.4 µM [inhibitor, single point]
O=C(Cn1cnc2c(NCc3ccccc3)ncnc21)NCC1CCCO1 (stereo not given) | inconclusive: 0.631 µM [inhibitor, full curve, poor fit]
C[C@@]12C(=O)Nc3cc(F)c(F)cc3C(=O)N1[C@H]1c3cc(Cl)ccc3OC[C@@H]1[C@@H]2c1ccccc1 | inactive
CCCCC(c1nnnn1CCOC)N1CCN(Cc2ccccc2)CC1 (stereo not given) | inconclusive: 28.2 µM [inhibitor, single point]
CCCOc1ccccc1C(=O)N(Cc1ccco1)C1CCS(=O)(=O)C1 (stereo not given) | inconclusive: 3.98 µM [inhibitor, partial curve, poor fit]
CCOC(=O)c1sc(NC(=O)COc2ccccc2Cl)c(C(=O)OCC)c1C | inactive
CC(C)(C)c1ccc(Oc2cccc(C3CC(=O)C(C4NCCc5ccccc54)C(=O)C3n3cncn3)c2)cc1 (stereo not given) | inconclusive: 20 µM [inhibitor, partial curve, poor fit]
COc1ccc2c(Sc3ccc(Cl)cc3)c(C(=O)NCCCN3CCCCC3)[nH]c2c1 | inactive
O=C(CSc1nccn(-c2ccc3c(c2)OCCO3)c1=O)Nc1ccccc1 | inconclusive: 25.1 µM [inhibitor, partial curve]
CC#CCOC(=O)c1c(C)nc2sc3c(c2c1N)CCC(O)C3 (stereo not given) | inconclusive: 28.2 µM [inhibitor, single point]
Cc1nn(C)c(Oc2cccc(Cl)c2)c1C(=O)Nc1ccc(F)cc1 | inconclusive: 89.1 µM [inhibitor, single point]
CCN(CC)CCNC(=O)c1ccc2c(c1NCCO)C(=O)c1ccccc1C2=O | inconclusive: 7.08 µM [inhibitor, full curve]
Cc1cccn2c(=O)c3cc(C#N)c(=N)n(Cc4cccnc4)c3nc12 | inconclusive: 39.8 µM [inhibitor, single point]
Cc1cccc(Oc2c([N+](=O)[O-])c(=O)n(C)c3ccccc23)c1 | inconclusive: 20 µM [inhibitor, partial curve, poor fit]
